Drawing on paper PMC6976901 (Toxicology Reports, 2020), this text covers Papp for one compound.

A short description of this series: in vitro. To be noted: human, Caco-2.

For `CC(C)NCC(O)COc1ccc(CC(N)=O)cc1` (stereo not shown) [atenolol, reference compound], the Papp is 0.5 ± 0.1 ×10⁻⁶ cm/s.
